{"source": "PubChem BioAssay AID493246 (Drosophila RNAi Screening Center, 2011)", "purpose": "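Identify essential fly genes by loss of cell viability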 (primary screen)", "cells": "Drosophila Kc and S2R+ cells", "knock-down reagent": "long dsRNA against Drosophila genes", "detection": "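Raw, unnormalised count of remaining cells in each well; per-plate z-scores of cell number underlie the calls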", "direction": "Kc cell number and S2R+ cell number: higher = more cells remaining", "hit rule": "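Active when the per-plate z-score of cell number is 3 or more in the direction of fewer cells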", "note": "In all, the deposit lists about 21,000 reagents; this is a random part of those that have a named target and a result. Over the whole deposit, 429 (2%) were called active. 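Values are raw and not normalised between plates; calls rest on per-plate z-scores that were not deposited.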 Not stated in the record: the amount of reagent, the time to read-out."}
{"gene":"CG34286 (GeneID 5740178)","PubChem SID":"SID104193164","Kc cell number, rep 1":1.69e6,"Kc cell number, rep 2":1.81e6,"S2R+ cell number, rep 1":1.12e6,"S2R+ cell number, rep 2":1.10e6,"activity call":"inactive"}
{"gene":"CG17440 (GeneID 31879)","PubChem SID":"SID104197918","Kc cell number, rep 1":1.54e6,"Kc cell number, rep 2":1.51e6,"S2R+ cell number, rep 1":1.03e6,"S2R+ cell number, rep 2":1.09e6,"activity call":"inactive"}
{"gene":"CG10853 (GeneID 38465)","PubChem SID":"SID104187956","Kc cell number, rep 1":1.31e6,"Kc cell number, rep 2":1.27e6,"S2R+ cell number, rep 1":9.60e5,"S2R+ cell number, rep 2":1.15e6,"activity call":"inactive"}
{"gene":"Rsph9 (GeneID 318950)","PubChem SID":"SID104181386","Kc cell number, rep 1":1.50e6,"Kc cell number, rep 2":1.57e6,"S2R+ cell number, rep 1":9.43e5,"S2R+ cell number, rep 2":1.12e6,"activity call":"inactive"}
{"gene":"CG16978 (GeneID 50446)","PubChem SID":"SID104182345","Kc cell number, rep 1":1.61e6,"Kc cell number, rep 2":1.64e6,"S2R+ cell number, rep 1":1.31e6,"S2R+ cell number, rep 2":1.47e6,"activity call":"inactive"}
{"gene":"veil (GeneID 36968)","PubChem SID":"SID104186684","Kc cell number, rep 1":1.40e6,"Kc cell number, rep 2":1.46e6,"S2R+ cell number, rep 1":1.12e6,"S2R+ cell number, rep 2":1.14e6,"activity call":"inactive"}
{"gene":"Fibp (GeneID 40163)","PubChem SID":"SID104190823","Kc cell number, rep 1":1.43e6,"Kc cell number, rep 2":1.53e6,"S2R+ cell number, rep 1":1.22e6,"S2R+ cell number, rep 2":1.24e6,"activity call":"inactive"}
{"gene":"CG43740 (GeneID 31962)","PubChem SID":"SID104197786","Kc cell number, rep 1":1.68e6,"Kc cell number, rep 2":1.59e6,"S2R+ cell number, rep 1":1.01e6,"S2R+ cell number, rep 2":1.16e6,"activity call":"inactive"}
{"gene":"CG10147 (GeneID 38733)","PubChem SID":"SID104189498","Kc cell number, rep 1":1.50e6,"Kc cell number, rep 2":1.54e6,"S2R+ cell number, rep 1":1.18e6,"S2R+ cell number, rep 2":1.19e6,"activity call":"inactive"}
{"gene":"CG9733 (GeneID 43601)","PubChem SID":"SID104196341","Kc cell number, rep 1":1.48e6,"Kc cell number, rep 2":1.48e6,"S2R+ cell number, rep 1":1.01e6,"S2R+ cell number, rep 2":1.14e6,"activity call":"inactive"}
{"gene":"Obp83g (GeneID 170878)","PubChem SID":"SID104192061","Kc cell number, rep 1":1.45e6,"Kc cell number, rep 2":1.51e6,"S2R+ cell number, rep 1":1.28e6,"S2R+ cell number, rep 2":1.36e6,"activity call":"inactive"}
{"gene":"CG31735 (GeneID 318922)","PubChem SID":"SID104181310","Kc cell number, rep 1":1.57e6,"Kc cell number, rep 2":1.54e6,"S2R+ cell number, rep 1":9.63e5,"S2R+ cell number, rep 2":1.20e6,"activity call":"inactive"}
{"gene":"CG5886 (GeneID 43125)","PubChem SID":"SID104195700","Kc cell number, rep 1":5.11e5,"S2R+ cell number, rep 1":7.42e5,"activity call":"inactive"}
{"gene":"CG3163 (GeneID 37836)","PubChem SID":"SID104184133","Kc cell number, rep 1":1.39e6,"Kc cell number, rep 2":1.44e6,"S2R+ cell number, rep 1":1.06e6,"S2R+ cell number, rep 2":1.11e6,"activity call":"inactive"}
{"gene":"Ndc1 (GeneID 42825)","PubChem SID":"SID104195687","Kc cell number, rep 1":1.40e6,"Kc cell number, rep 2":1.52e6,"S2R+ cell number, rep 1":1.21e6,"S2R+ cell number, rep 2":1.35e6,"activity call":"inactive"}
{"gene":"Lcp65Aa (GeneID 38709)","PubChem SID":"SID104191001","Kc cell number, rep 1":1.37e6,"Kc cell number, rep 2":1.29e6,"S2R+ cell number, rep 1":1.16e6,"S2R+ cell number, rep 2":1.21e6,"activity call":"inactive"}
{"gene":"RpL18 (GeneID 38794)","PubChem SID":"SID104190808","Kc cell number, rep 1":6.44e5,"Kc cell number, rep 2":7.86e5,"S2R+ cell number, rep 1":5.69e5,"S2R+ cell number, rep 2":6.40e5,"activity call":"active"}
{"gene":"CG5235 (GeneID 39758)","PubChem SID":"SID104190286","Kc cell number, rep 1":1.30e6,"Kc cell number, rep 2":1.43e6,"S2R+ cell number, rep 1":1.27e6,"S2R+ cell number, rep 2":1.35e6,"activity call":"inactive"}
{"gene":"oaf (GeneID 33435)","PubChem SID":"SID104180623","Kc cell number, rep 1":1.49e6,"Kc cell number, rep 2":1.53e6,"S2R+ cell number, rep 1":9.97e5,"S2R+ cell number, rep 2":1.11e6,"activity call":"inactive"}
{"gene":"CG13722 (GeneID 38555)","PubChem SID":"SID104188123","Kc cell number, rep 1":1.61e6,"Kc cell number, rep 2":1.52e6,"S2R+ cell number, rep 1":1.18e6,"S2R+ cell number, rep 2":1.23e6,"activity call":"inactive"}
{"gene":"Aduk (GeneID 41112)","PubChem SID":"SID104196243","Kc cell number, rep 1":1.81e6,"Kc cell number, rep 2":1.68e6,"S2R+ cell number, rep 1":1.33e6,"S2R+ cell number, rep 2":1.43e6,"activity call":"inactive"}
